Binding data for two molecules are collected here from paper doi:10.1101/2020.12.31.424961.

These are yes or no findings as the source states them, for the method shown. In cells and extracts the contact can be indirect. A yes stands for co-enrichment or nearness to the bait. Other partners may have been found.

The target of experiment [1] is SARS-CoV-2 NSP5, SFB- or BioID2-tagged (SARS-CoV-2) (UniProt P0DTD1). Nature of the experiment: affinity purification with mass spectrometry + proximity labelling.
Experiment [2] concerns the target SARS-CoV-2 ORF3a, SFB- or BioID2-tagged (SARS-CoV-2) (UniProt P0DTC3). The description is as above.

B1: OAS3 (protein, UniProt Q9Y6K5 1-1087)
chain: MDLYSTPAAALDRFVARRLQPRKEFVEKARRALGALAAALRERGGRLGAAAPRVLKTVKGGSSGRGTALKGGCDSELVIFLDCFKSYVDQRARRAEILSEMRASLESWWQNPVPGLRLTFPEQSVPGALQFRLTSVDLEDWMDVSLVPAFNVLGQAGSGVKPKPQVYSTLLNSGCQGGEHAACFTELRRNFVNIRPAKLKNLILLVKHWYHQVCLQGLWKETLPPVYALELLTIFAWEQGCKKDAFSLAEGLRTVLGLIQQHQHLCVFWTVNYGFEDPAVGQFLQRQLKRPRPVILDPADPTWDLGNGAAWHWDLLAQEAASCYDHPCFLRGMGDPVQSWKGPGLPRAGCSGLGHPIQLDPNQKTPENSKSLNAVYPRAGSKPPSCPAPGPTGAASIVPSVPGMALDLSQIPTKELDRFIQDHLKPSPQFQEQVKKAIDIILRCLHENCVHKASRVSKGGSFGRGTDLRDGCDVELIIFLNCFTDYKDQGPRRAEILDEMRAQLESWWQDQVPSLSLQFPEQNVPEALQFQLVSTALKSWTDVSLLPAFDAVGQLSSGTKPNPQVYSRLLTSGCQEGEHKACFAELRRNFMNIRPVKLKNLILLVKHWYRQVAAQNKGKGPAPASLPPAYALELLTIFAWEQGCRQDCFNMAQGFRTVLGLVQQHQQLCVYWTVNYSTEDPAMRMHLLGQLRKPRPLVLDPADPTWNVGHGSWELLAQEAAALGMQACFLSRDGTSVQPWDVMPALLYQTPAGDLDKFISEFLQPNRQFLAQVNKAVDTICSFLKENCFRNSPIKVIKVVKGGSSAKGTALRGRSDADLVVFLSCFSQFTEQGNKRAEIISEIRAQLEACQQERQFEVKFEVSKWENPRVLSFSLTSQTMLDQSVDFDVLPAFDALGQLVSGSRPSSQVYVDLIHSYSNAGEYSTCFTELQRDFIISRPTKLKSLIRLVKHWYQQCTKISKGRGSLPPQHGLELLTVYAWEQGGKDSQFNMAEGFRTVLELVTQYRQLCIYWTINYNAKDKTVGDFLKQQLQKPRPIILDPADPTGNLGHNARWDLLAKEAAACTSALCCMGRNGIPIQPWPVKAAV
Consider B1, for which the binding result in experiment [1] is reported as “binds”.

B2: CLCC1 (protein, UniProt Q96S66 19-551)
chain: HDDDWIDPTDMLNYDAASGTMRKSQAKYGISGEKDVSPDLSCADEISECYHKLDSLTYKIDECEKKKREDYESQSNPVFRRYLNKILIEAGKLGLPDENKGDMHYDAEIILKRETLLEIQKFLNGEDWKPGALDDALSDILINFKFHDFETWKWRFEDSFGVDPYNVLMVLLCLLCIVVLVATELWTYVRWYTQLRRVLIISFLFSLGWNWMYLYKLAFAQHQAEVAKMEPLNNVCAKKMDWTGSIWEWFRSSWTYKDDPCQKYYELLLVNPIWLVPPTKALAVTFTTFVTEPLKHIGKGTGEFIKALMKEIPALLHLPVLIIMALAILSFCYGAGKSVHVLRHIGGPESEPPQALRPRDRRRQEEIDYRPDGGAGDADFHYRGQMGPTEQGPYAKTYEGRREILRERDVDLRFQTGNKSPEVLRAFDVPDAEAREHPTVVPSHKSPVLDTKPKETGGILGEGTPKESSTESSQSAKPVSGQDTSGNTEGSPAAEKAQLKSEAAGSPDQGSTYSPARGVAGPRGQDPVSSPCG
Consider B2, for which the binding result in experiment [2] is “binds”.
